Results are given in words; binding and its absence hold for the method and conditions named. Binding seen in cells or lysates may run through a third protein. Some results given as binding are weak or reduced against the parent protein; the word gives no strength.

This assay addresses endogenous glutamate dehydrogenase 1 (GLUD1) (human (endogenous in HCT116 and LoVo)), P00367. The experiment in a line: co-IP; endogenous proteins in HCT116 and LoVo lysates; anti-GLUD1 antibody or normal immunoglobulin G coupled to Amino Link Plus resin (Pierce Co-IP Kit); overnight at 4 °C. The note with it: remark: other sources report otherwise.

B1: endogenous Sirtuin5 (SIRT5), Q9NXA8 37-310 (enzyme)
chain: SSSMADFRKFFAKAKHIVIISGAGVSAESGVPTFRGAGGYWRKWQAQDLATPLAFAHNPSRVWEFYHYRREVMGSKEPNAGHRAIAECETRLGKQGRRVVVITQNIDELHRKAGTKNLLEIHGSLFKTRCTSCGVVAENYKSPICPALSGKGAPEPGTQDASIPVEKLPRCEEAGCGGLLRPHVVWFGENLDPAILEEVDRELAHCDLCLVVGTSSVVYPAAMFAPQVAARGVPVAEFNTETTPATNRFRFHFQGPCGTTLPEALACHENETVS
As for B1, the binding result is given as “binds”.

(Values after article PMC5803207.)
